The other results are listed elsewhere or left out. The data scatter; read single values as rough.

Protein sequences, listed by entry. Tags and fused reporters are not part of them. Lines headed by an entry give the natural chain unless they say otherwise; changes in a name come on top. Residues count along the entry.
UniProt Q8IWX8: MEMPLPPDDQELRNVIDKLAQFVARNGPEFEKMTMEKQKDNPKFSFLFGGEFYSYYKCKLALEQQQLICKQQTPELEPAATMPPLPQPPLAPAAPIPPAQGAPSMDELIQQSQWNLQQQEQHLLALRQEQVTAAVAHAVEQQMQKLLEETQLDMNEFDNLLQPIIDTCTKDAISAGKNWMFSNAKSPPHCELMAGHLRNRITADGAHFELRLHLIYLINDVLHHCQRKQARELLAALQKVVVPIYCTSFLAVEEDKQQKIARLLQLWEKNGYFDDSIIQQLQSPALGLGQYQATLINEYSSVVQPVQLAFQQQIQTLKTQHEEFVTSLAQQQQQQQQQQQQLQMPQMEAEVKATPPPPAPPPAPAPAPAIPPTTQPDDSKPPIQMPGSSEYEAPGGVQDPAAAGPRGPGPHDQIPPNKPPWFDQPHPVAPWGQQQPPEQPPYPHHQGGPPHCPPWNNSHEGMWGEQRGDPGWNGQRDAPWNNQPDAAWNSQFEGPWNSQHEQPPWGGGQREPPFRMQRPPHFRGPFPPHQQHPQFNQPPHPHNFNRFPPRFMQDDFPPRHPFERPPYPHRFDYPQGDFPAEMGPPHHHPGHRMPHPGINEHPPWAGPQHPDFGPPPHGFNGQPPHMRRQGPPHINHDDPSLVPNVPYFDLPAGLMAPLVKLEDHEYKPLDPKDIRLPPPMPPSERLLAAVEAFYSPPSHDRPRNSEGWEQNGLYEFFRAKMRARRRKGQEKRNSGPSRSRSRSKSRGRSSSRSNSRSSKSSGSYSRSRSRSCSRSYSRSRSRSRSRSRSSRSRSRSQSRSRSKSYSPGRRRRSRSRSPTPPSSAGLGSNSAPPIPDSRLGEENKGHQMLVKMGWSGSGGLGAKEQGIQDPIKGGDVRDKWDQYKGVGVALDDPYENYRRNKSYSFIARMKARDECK
UniProt O75131: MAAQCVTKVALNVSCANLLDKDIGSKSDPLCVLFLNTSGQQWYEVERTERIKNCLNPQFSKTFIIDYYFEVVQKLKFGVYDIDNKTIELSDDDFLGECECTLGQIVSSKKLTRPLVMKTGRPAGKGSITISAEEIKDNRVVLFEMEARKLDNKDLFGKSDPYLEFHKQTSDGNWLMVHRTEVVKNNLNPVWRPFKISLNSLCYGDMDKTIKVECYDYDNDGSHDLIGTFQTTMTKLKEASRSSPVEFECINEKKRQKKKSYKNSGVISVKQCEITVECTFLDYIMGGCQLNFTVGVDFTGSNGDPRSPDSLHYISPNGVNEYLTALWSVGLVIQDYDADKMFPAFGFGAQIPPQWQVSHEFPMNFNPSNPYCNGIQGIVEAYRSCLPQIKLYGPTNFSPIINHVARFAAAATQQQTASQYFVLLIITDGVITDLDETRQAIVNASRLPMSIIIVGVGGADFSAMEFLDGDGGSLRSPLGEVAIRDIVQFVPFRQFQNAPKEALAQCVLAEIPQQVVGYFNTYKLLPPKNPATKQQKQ
UniProt O75976: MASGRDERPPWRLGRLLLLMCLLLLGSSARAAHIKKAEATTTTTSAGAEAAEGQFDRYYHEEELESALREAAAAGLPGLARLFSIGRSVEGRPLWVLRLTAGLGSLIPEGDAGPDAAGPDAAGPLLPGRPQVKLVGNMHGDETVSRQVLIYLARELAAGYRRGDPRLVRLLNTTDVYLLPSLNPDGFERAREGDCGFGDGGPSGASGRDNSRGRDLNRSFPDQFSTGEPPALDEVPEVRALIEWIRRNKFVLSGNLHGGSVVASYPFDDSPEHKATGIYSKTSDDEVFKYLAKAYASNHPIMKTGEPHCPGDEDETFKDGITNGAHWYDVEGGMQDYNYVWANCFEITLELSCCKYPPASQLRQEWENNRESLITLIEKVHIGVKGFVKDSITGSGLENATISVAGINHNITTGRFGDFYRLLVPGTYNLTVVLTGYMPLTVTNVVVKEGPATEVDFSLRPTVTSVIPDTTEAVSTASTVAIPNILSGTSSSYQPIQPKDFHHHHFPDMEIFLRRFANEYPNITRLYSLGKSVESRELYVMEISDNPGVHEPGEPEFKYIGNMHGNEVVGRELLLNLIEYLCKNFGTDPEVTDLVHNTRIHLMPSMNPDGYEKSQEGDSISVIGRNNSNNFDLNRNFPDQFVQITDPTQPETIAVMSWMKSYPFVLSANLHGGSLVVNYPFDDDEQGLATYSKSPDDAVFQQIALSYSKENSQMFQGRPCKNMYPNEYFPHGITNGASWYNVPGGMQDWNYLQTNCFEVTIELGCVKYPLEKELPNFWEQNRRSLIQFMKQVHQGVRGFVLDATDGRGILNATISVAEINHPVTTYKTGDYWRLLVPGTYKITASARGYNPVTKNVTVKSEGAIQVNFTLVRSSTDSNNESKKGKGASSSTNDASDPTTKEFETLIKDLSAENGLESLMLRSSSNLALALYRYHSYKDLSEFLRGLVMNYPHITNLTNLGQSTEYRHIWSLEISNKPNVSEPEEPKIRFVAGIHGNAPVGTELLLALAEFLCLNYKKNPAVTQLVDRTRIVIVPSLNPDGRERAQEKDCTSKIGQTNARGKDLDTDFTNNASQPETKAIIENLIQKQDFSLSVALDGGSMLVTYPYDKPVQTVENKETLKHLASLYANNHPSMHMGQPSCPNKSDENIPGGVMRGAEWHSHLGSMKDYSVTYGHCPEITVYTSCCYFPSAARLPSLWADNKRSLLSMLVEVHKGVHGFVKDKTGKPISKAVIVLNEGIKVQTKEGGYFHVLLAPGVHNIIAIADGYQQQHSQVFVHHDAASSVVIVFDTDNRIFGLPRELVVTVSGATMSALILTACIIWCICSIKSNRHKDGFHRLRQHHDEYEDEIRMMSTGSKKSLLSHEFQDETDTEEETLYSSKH
UniProt P57737: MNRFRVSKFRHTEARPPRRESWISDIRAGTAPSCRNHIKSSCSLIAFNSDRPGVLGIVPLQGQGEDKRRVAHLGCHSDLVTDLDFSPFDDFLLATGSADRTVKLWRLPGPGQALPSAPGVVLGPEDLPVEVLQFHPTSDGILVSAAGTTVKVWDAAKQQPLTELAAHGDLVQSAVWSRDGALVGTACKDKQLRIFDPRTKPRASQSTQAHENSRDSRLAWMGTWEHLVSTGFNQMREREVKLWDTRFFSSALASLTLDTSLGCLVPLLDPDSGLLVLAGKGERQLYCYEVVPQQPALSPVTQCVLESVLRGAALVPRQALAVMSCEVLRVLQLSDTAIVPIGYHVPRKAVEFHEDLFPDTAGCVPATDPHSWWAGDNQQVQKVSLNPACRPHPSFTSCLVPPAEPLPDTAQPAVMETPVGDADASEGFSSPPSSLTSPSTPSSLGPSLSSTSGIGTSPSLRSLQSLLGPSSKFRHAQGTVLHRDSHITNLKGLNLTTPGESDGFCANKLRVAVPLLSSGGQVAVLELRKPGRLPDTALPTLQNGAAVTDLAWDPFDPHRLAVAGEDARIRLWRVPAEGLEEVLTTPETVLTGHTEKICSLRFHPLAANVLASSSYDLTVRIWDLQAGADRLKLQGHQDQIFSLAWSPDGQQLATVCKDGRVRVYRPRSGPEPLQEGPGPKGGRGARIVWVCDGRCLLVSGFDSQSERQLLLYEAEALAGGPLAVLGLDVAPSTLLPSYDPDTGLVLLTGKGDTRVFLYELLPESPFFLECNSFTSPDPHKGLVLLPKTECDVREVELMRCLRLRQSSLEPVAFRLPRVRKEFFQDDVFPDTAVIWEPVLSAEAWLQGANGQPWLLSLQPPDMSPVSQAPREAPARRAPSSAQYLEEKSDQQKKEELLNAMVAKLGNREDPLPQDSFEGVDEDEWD
UniProt P54105: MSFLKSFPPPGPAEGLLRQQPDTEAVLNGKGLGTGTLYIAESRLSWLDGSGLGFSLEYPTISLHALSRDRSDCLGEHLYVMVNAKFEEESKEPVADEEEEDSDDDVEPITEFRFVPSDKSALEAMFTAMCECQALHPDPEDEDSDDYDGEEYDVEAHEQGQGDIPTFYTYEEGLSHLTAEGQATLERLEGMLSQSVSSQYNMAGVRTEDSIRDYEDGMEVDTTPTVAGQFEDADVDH
UniProt P21964: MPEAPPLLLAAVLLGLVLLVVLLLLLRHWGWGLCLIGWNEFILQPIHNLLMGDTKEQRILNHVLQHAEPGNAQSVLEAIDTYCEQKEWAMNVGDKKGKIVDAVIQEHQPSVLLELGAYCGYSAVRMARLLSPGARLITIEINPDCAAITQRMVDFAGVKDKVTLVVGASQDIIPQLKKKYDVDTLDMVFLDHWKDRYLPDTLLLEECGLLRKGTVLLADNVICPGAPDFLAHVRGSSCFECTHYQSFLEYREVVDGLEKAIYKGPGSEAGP
UniProt O96017, whole entry, looked up: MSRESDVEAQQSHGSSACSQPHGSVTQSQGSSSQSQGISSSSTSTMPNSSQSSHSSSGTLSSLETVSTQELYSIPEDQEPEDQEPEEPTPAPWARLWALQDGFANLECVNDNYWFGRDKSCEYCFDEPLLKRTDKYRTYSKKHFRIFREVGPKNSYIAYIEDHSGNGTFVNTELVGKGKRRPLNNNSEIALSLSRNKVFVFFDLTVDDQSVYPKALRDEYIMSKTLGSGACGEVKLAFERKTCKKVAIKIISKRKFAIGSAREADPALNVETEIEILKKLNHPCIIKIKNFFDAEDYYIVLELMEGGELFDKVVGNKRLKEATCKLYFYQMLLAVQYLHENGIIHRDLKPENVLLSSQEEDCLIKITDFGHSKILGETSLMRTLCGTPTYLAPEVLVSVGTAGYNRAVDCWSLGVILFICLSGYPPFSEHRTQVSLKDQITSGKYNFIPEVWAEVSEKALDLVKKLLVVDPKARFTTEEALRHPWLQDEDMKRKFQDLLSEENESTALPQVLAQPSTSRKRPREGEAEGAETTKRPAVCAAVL
UniProt O95639, whole entry, looked up: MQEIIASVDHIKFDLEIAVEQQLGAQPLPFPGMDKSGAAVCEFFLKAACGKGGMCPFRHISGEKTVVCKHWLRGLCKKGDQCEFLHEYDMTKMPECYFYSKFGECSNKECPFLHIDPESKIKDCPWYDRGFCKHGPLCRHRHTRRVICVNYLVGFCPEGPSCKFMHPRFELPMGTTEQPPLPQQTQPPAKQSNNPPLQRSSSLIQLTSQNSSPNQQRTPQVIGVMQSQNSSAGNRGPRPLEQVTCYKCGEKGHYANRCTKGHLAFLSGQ
UniProt Q6PJW8: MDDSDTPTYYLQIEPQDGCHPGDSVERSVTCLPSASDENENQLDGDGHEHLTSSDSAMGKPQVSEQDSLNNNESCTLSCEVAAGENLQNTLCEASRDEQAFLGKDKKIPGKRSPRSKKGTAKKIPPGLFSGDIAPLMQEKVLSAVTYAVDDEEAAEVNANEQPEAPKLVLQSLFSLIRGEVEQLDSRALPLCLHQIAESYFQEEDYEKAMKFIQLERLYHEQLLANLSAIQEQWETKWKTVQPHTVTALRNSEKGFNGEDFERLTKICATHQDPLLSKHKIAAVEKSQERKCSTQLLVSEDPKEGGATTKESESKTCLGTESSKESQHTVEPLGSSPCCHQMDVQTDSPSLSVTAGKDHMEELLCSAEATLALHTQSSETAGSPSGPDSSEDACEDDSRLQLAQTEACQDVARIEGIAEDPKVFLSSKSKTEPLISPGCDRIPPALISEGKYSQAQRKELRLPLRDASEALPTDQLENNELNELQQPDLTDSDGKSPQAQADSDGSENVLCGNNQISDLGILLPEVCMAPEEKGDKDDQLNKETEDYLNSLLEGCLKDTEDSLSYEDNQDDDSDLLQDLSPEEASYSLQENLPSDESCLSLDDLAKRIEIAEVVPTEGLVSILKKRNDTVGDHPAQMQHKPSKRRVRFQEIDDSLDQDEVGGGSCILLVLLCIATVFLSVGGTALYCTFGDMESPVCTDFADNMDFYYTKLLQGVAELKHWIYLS
UniProt Q96RY5, 579-605: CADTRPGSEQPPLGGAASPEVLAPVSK
UniProt Q9BT09: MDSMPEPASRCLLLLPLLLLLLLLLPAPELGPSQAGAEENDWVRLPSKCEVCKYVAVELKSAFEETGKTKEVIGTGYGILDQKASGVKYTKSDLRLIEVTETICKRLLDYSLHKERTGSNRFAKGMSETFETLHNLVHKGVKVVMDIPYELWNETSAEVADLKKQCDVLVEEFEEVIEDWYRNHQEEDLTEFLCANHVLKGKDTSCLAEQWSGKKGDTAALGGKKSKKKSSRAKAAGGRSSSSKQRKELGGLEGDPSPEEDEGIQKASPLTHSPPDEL
UniProt Q9NZZ3: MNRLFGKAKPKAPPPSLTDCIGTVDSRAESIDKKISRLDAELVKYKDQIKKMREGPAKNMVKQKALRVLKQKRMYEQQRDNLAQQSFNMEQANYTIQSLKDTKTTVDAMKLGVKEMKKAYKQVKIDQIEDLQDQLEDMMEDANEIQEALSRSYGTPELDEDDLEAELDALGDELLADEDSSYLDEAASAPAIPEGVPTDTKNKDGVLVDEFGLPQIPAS
UniProt Q86VU5: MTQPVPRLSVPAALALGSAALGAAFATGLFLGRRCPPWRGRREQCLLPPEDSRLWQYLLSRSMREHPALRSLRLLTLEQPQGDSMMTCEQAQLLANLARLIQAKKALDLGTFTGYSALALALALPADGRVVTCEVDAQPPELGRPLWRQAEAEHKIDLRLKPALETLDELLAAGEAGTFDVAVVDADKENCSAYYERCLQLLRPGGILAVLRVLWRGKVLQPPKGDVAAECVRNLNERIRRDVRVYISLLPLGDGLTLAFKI

Compound in one assay: ClCC(=O)N[C@@H]1CCCc2ccccc12
As to the kind of experiment: log2 mean competition ratio of IA-DTB cysteine labelling (DMSO/compound) (log2 ratio); higher = stronger cysteine engagement by compound. To be noted: 50 µM; treatment time: 4 h; cell line lysate: HEK293T. As for the experimental part: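 IA-DTB competitive cysteine chemoproteomics in HEK293T RIPA lysate. Lysates were treated with compound 29 or 30 at 50 or 200 µM for 4 h, then IA-DTB (500 µM, 1 h), trypsin-digested, NeutrAvidin-enriched and analysed by diaPASEF. Competition ratio = intensity DMSO / intensity compound (n=4 treated, n=64 DMSO); binding: mean log2 CR ≥ 1 and p ≤ 0.05 plus QC filters. Target is the cysteine site.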
Take CHERP C69 (UniProt Q8IWX8): the “log2 mean competition ratio” value worked out at 0.191.
Still for that read-out and setting: for CNN3 C59 (UniProt Q15417) the value was -0.0538; for CNOT1 C1706 (UniProt A5YKK6), 0.0341; for CLIP1 C1022, -0.0849.
On the same count and under the same terms, for CLMN C353 the value was 0.0499; for CPNE3 C5 (UniProt O75131), 0.139.
As to CPD C195 (UniProt O75976), the “log2 mean competition ratio” value was -0.225.
On to CIC C1432, for which the “log2 mean competition ratio” value was 0.026.
As for COMMD5 C64 (UniProt Q9GZQ3), the “log2 mean competition ratio” value amounted to 0.0981.
On the same count and under the same terms, for CORO7 C691 (UniProt P57737) the value was -0.27; for CLNS1A C73 (UniProt P54105), 0.305; for COMT C207 (UniProt P21964), 0.104.
In the case of CMAS C380 (UniProt Q8NFW8), the “log2 mean competition ratio” value stood at 0.0781.
Same read-out and setting: next, CLUH C7: -0.186; CHEK2 C362 (UniProt O96017): -0.202; CPSF4 C82 (UniProt O95639): -0.172.
On the same count and under the same terms, next, CNTNAP1 C1250: 0.322.
Same read-out and setting: for CPSF4 C110 (UniProt O95639) the value was -0.0944.
Take CHEK2 C539 (UniProt O96017): the “log2 mean competition ratio” value worked out at 0.0887.
For CLN5 C231 (UniProt O75503), the “log2 mean competition ratio” value is 1.06.
Still for that read-out and setting: next, COBLL1 C223 (UniProt Q53SF7): -0.0585.
For CNST C439 (UniProt Q6PJW8), the “log2 mean competition ratio” value is -0.0561.
Consider COLEC12 C27, for which the “log2 mean competition ratio” value is -0.00424.
With CRAMP1 C579 (UniProt Q96RY5), the “log2 mean competition ratio” value amounted to 0.321.
Regarding CNPY3 C206 (UniProt Q9BT09), the “log2 mean competition ratio” value came out at 0.368.
The same measure, in the same setting: for CHMP5 C20 (UniProt Q9NZZ3) the value was 0.171.
On to COG1 C577 (UniProt Q8WTW3), for which the “log2 mean competition ratio” value is -0.0424.
For CPSF4 C105 (UniProt O95639), the “log2 mean competition ratio” value was -0.173.
For CLTCL1 C1404 (UniProt P53675), the “log2 mean competition ratio” value was -0.223.
Same read-out and setting: for CPSF2 C346 (UniProt Q9P2I0) the value was -0.446; for CNST C317 (UniProt Q6PJW8), -0.136; for CHEK1 C48 (UniProt O14757), -0.11.
As to COMTD1 C231 (UniProt Q86VU5), the “log2 mean competition ratio” value is 0.0881.
Turning to CLUAP1 C292, the “log2 mean competition ratio” value was -0.219.
Same read-out and setting: for CMIP C40 (UniProt Q8IY22) the value was -0.00607; for COG5 C173 (UniProt Q9UP83), 0.221; for CLASP2 C976 (UniProt O75122), -0.161.

Still in this assay, the particulars now being: 200 µM; treatment time: 4 h; cell line lysate: HEK293T.
For CHERP C69 (UniProt Q8IWX8), the “log2 mean competition ratio” value was -0.0123.
On the same count and under the same terms, for CNN3 C59 (UniProt Q15417) the value was -0.442.
CNOT1 C1706 (UniProt A5YKK6): the “log2 mean competition ratio” value was 0.0173.
Same read-out and setting: next, CLIP1 C1022: -0.0771; CLMN C353: 0.201.
On to CPNE3 C5 (UniProt O75131), for which the “log2 mean competition ratio” value is -0.21.
Consider CPD C195 (UniProt O75976), for which the “log2 mean competition ratio” value was -0.0832.
Same read-out and setting: next, CIC C1432: -0.00597; COMMD5 C64 (UniProt Q9GZQ3): -0.105; CORO7 C691 (UniProt P57737): -0.0407.
For the target CLNS1A C73 (UniProt P54105), the “log2 mean competition ratio” value was found to be 0.214.
Same read-out and setting: next, COMT C207 (UniProt P21964): -0.113.
For the target CMAS C380 (UniProt Q8NFW8), the “log2 mean competition ratio” value is -0.166.
On the same count and under the same terms, for CLUH C7 the value was -0.0394; for CHEK2 C362 (UniProt O96017), 0.0727.
CPSF4 C82 (UniProt O95639): the “log2 mean competition ratio” value was found to be 0.559.
Still for that read-out and setting: next, CNTNAP1 C1250: -0.302; CPSF4 C110 (UniProt O95639): -0.312; CHEK2 C539 (UniProt O96017): -0.0704.
For CLN5 C231 (UniProt O75503), the “log2 mean competition ratio” value turned out to be 3.83.
In the case of COBLL1 C223 (UniProt Q53SF7), the “log2 mean competition ratio” value was -0.091.
Same read-out and setting: for CNST C439 (UniProt Q6PJW8) the value was 0.0692.
Still for that read-out and setting: next, COLEC12 C27: 0.0456.
Consider CRAMP1 C579 (UniProt Q96RY5), for which the “log2 mean competition ratio” value is -0.121.
Consider CNPY3 C206 (UniProt Q9BT09), for which the “log2 mean competition ratio” value amounted to 0.509.
On the same count and under the same terms, for CHMP5 C20 (UniProt Q9NZZ3) the value was 0.297; for COG1 C577 (UniProt Q8WTW3), -0.227; for CPSF4 C105 (UniProt O95639), -0.0774.
On the same count and under the same terms, for CLTCL1 C1404 (UniProt P53675) the value was -0.168.
Consider CPSF2 C346 (UniProt Q9P2I0), for which the “log2 mean competition ratio” value is -0.126.
On the same count and under the same terms, for CNST C317 (UniProt Q6PJW8) the value was 0.0866; for CHEK1 C48 (UniProt O14757), -0.00715.
Still for that read-out and setting: for COMTD1 C231 (UniProt Q86VU5) the value was -0.0533.
For the target CLUAP1 C292, the “log2 mean competition ratio” value was -0.474.
Take CMIP C40 (UniProt Q8IY22): the “log2 mean competition ratio” value came out at 0.279.
As for COG5 C173 (UniProt Q9UP83), the “log2 mean competition ratio” value was -0.33.
Still for that read-out and setting: for CLASP2 C976 (UniProt O75122) the value was -0.284.

The record behind these values is the supplement of paper PMC11732987, “Enantioselective OTUD7B fragment discovery through chemoproteomics screening and high-throughput optimisation” (Communications Chemistry, 2025).
